Reference: patent US8105581B2, “Compositions and methods for inducing neuronal differentiation” (The Scripps Research Institute, priority 2005, dated 2012)
At least one compound was matched to its structure with a doubt left.

How the values were obtained:
Assay type in all cases: cell-based, rat
HCN cells [1] = assay: BrdU proliferation assay; conditions: HCN cells treated 5 hours in bFGF-free N2 medium; 15, 10, 5 μM Compound A or 1, 0.5, 0.25 μM RA; BrdU 2 hours
Procedure: BrdU proliferation assay: Cells were treated with compounds (Compound A and
RA). After 5 hours, the medium was changed and 10 μM of 5-bromo-2′-deoxy-uridine (BrdU) (final concentration) was added to each well. After treatment with BrdU for 2 hours, cells were fixed, washed three times with 01M Tris-buffer, and incubated in 2N HCl at 37° for 30 min. After treatment with 0.1M borate buffer (pH 8.5) for 10 min, cells were washed three times with PBS and treated with blocking buffer (PBS containing 0.3% Triton-X and 5% donkey serum) for 60 min. After overnight incubation with anti-BrdU (1:400) antibody, cells were washed with PBS and incubated with secondary antibody conjugated to Cy3 (1:1000) for 2 hours. After washing with PBS, BrdU-positive cells were counted.

HCN cells [2] = assay: Astroglial differentiation of HCN cells induced by LIF/BMP2/FBS; conditions: 50 ng/ml LIF, 50 ng/ml BMP2 and 0.5% FBS; compound A 20 μM, RA 5 μM
[3] = test system: HCN cells (adult hippocampal neural progenitor cells); assay: Neuronal and astroglial differentiation of HCN cells by TuJ1/GFAP double-immunofluorescence staining; conditions: four days in N2 media; 10 μM Compound A or 2 μM RA (FIG. 2)
Procedure: Cell Culture: Neural precursor cells isolated from the hippocampus of adult female Fischer 344 rats^(1) were maintained in N2 supplemented (Invitrogen) DMEM: Ham's F12 (Omega scientific) medium containing 20 ng/mL FGF-2 (PeproTech Inc.) HCN cells were expanded and maintained in an undifferentiated state on a polyornithine/laminin-coated dish in a defined serum-free growth medium (DMEM/F12 supplemented with N2 and 20 ng/ml bFGF) in a homogeneous monolayer. Neuronal and astroglial differentiation was analyzed directly with double-immunofluorescence staining of βIII tubulin (TuJ1) as a neuronal marker and glial fibrillary acidic protein (GFAP) as an astroglial marker. […] After treatment with compound for four days, cells were fixed and stained with βIII tubulin/TUJ1 and GFAP antibodies, the morphology of positively stained cells was analyzed, and the number of cells with the desired phenotypes was counted. […]
A combinatorial heterocycle library of 50,000 compounds was screened using undifferentiated, early passage HCN cells plated onto polyornithine/lamin-coated 384-well plates at a density of 6,000 cells/well in complete growth medium. […] After treatment with compound for four days, cells were fixed and stained with βIII tubulin/TUJ1 and GFAP antibodies, the morphology of positively stained cells was analyzed, and the number of cells with the desired phenotypes was counted.

SMILES: CC1=C(/C=C/C(C)=C/C=C/C(C)=C/C(=O)O)C(C)(C)CCC1 [RA, retinoic acid, reference compound]
- cell proliferation (BrdU-positive cells) (HCN cells [1]): weaker anti-proliferation activity
- inhibition of astroglial differentiation induced by LIF and BMP2 (HCN cells [2]): cannot
- lineage specificity: GFAP-positive (astroglial) versus neuronal cells after treatment [3]: relatively large numbers of both neuronal and astroglial cells
